{"source": "PubChem BioAssay AID1259254 (NCATS, 2017)", "test": "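Finding genes that stop cells copying their DNA twice in one cycle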 (primary screen)", "system": "human HCT116 colorectal cancer cells", "knock-down reagent": "single siRNA against human genes", "time to read-out": "3 days", "measurement": "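Imaged Hoechst DNA stain sorts each cell into a cycle phase by DNA amount; per plate, G2 fraction set to 0% for non-targeting and 100% for GMNN siRNA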", "scale": "G2 robust z-score and G2 cells, % of GMNN control: higher = more G2 cells, more excess DNA replication", "call rule": "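Active siRNAs have a G2 robust z of 5 or more median absolute deviations over the median, which in these data means about 38% or higher of GMNN control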", "note": "The whole screen tested about 59,000 reagents; below is a random part of them. Of all reagents, about 1,550 (2.6%) got an active call. 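G2 share is only a proxy for re-replication; each gene was hit by three separate siRNAs, and active genes were retested.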 Entries without a mark were called inactive. Reagents against one gene are numbered here. Not all columns of the deposit are shown. Not stated in the record: the amount of reagent."}
{"gene": "SDK1", "reagent no.": 1, "G2 robust z-score": -0.169, "G2 cells, % of GMNN control": 1.78}
{"gene": "SDK1", "reagent no.": 2, "G2 robust z-score": -0.144, "G2 cells, % of GMNN control": 1.95}
{"gene": "SDK1", "reagent no.": 3, "G2 robust z-score": 3.13, "G2 cells, % of GMNN control": 25}
{"gene": "PANK1", "reagent no.": 1, "G2 robust z-score": -0.677, "G2 cells, % of GMNN control": -1.8}
{"gene": "PANK1", "reagent no.": 2, "G2 robust z-score": -1.33, "G2 cells, % of GMNN control": -6.42}
{"gene": "PANK1", "reagent no.": 3, "G2 robust z-score": 1.07, "G2 cells, % of GMNN control": 10.5}
{"gene": "FOXN2", "reagent no.": 1, "G2 robust z-score": -0.392, "G2 cells, % of GMNN control": 0.206}
{"gene": "FOXN2", "reagent no.": 2, "G2 robust z-score": -0.864, "G2 cells, % of GMNN control": -3.11}
{"gene": "FOXN2", "reagent no.": 3, "G2 robust z-score": -1.28, "G2 cells, % of GMNN control": -6.02}
{"gene": "DDR2", "reagent no.": 1, "G2 robust z-score": 0.378, "G2 cells, % of GMNN control": 5.63}
{"gene": "DDR2", "reagent no.": 2, "G2 robust z-score": -0.838, "G2 cells, % of GMNN control": -2.93}
{"gene": "DDR2", "reagent no.": 3, "G2 robust z-score": -0.878, "G2 cells, % of GMNN control": -3.21}
{"gene": "CSRP2", "reagent no.": 1, "G2 robust z-score": 0.439, "G2 cells, % of GMNN control": 6.06}
{"gene": "CSRP2", "reagent no.": 2, "G2 robust z-score": 1.21, "G2 cells, % of GMNN control": 11.5}
{"gene": "CSRP2", "reagent no.": 3, "G2 robust z-score": 0.921, "G2 cells, % of GMNN control": 9.45}
{"gene": "RPL26P30", "reagent no.": 1, "G2 robust z-score": -0.351, "G2 cells, % of GMNN control": 0.497}
{"gene": "RPL26P30", "reagent no.": 2, "G2 robust z-score": "6.27 (active)", "G2 cells, % of GMNN control": 47}
{"gene": "RPL26P30", "reagent no.": 3, "G2 robust z-score": -0.884, "G2 cells, % of GMNN control": -3.25}
{"gene": "AIDA", "reagent no.": 1, "G2 robust z-score": 0.0923, "G2 cells, % of GMNN control": 3.62}
{"gene": "AIDA", "reagent no.": 2, "G2 robust z-score": -0.837, "G2 cells, % of GMNN control": -2.92}
{"gene": "AIDA", "reagent no.": 3, "G2 robust z-score": -0.825, "G2 cells, % of GMNN control": -2.84}
{"gene": "ENPP6", "reagent no.": 1, "G2 robust z-score": 0.158, "G2 cells, % of GMNN control": 4.08}
{"gene": "ENPP6", "reagent no.": 2, "G2 robust z-score": 0.767, "G2 cells, % of GMNN control": 8.36}
{"gene": "ENPP6", "reagent no.": 3, "G2 robust z-score": 0.6, "G2 cells, % of GMNN control": 7.19}

2 of these entries in another layout.
CSRP2 #3
- G2 robust z-score: 0.921
- G2 cells, % of GMNN control: 9.45

RPL26P30 #1
- G2 robust z-score: -0.351
- G2 cells, % of GMNN control: 0.497
